{"source": "patent US8491889B1", "about": "“Method for reducing micronutrient competitions” (priority 2010, dated 2013)", "origin": "cited, not measured here", "conditions": "after they are ingested", "note": "Some entries share one result that the patent states for a list of compounds. At least one compound was matched to its structure with a doubt left."}
{"compound": "[Ca+2]", "note": "[calcium]", "values": [{"measurement": "time within which the body excretes the nutrient after ingestion", "value": "≤ 12", "unit": "h"}]}
